Values from PubChem BioAssay AID504804 (Drosophila RNAi Screening Center, 2011)
The deposit covers about 19,000 reagents; below is an unselected part of those that have a named target and a result. Of all reagents, 47 (0.25%) are marked active. 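Signals are raw, not normalised; exact z-scores behind calls not deposited; actives needed confirmation, so some wells reaching 2 SD are inactive.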 Unmarked entries are inactive. The numbers tell different reagents against one gene apart. A plus sign joins genes that one reagent is predicted to hit. No sequences are given here.

Aim: 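dsRNAs that improve Kc cell survival under doxorubicin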 (primary screen)
Cell system: Drosophila Kc cells
Knock-down reagent: long dsRNA against Drosophila genes, 0.5 µg dsRNA per well
Duration: 96 h (48 h knock-down, then 48 h drug)
Treatment: doxorubicin 5 µg/ml for 48 h, added 48 h after dsRNA
Measurement: 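Luminescent ATP counts per replicate, not normalised, reflecting viable cells after 48 h dsRNA knock-down followed by 48 h of 5 µg/ml doxorubicin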
Direction: raw ATP luminescence: higher = more viable cells, protection from doxorubicin
Hit rule: 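Active when both duplicate wells lie at least 2 SD above the plate mean and protection is confirmed by rescreening and independent dsRNAs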

| target | reagent | raw ATP luminescence, replicate 1 | raw ATP luminescence, replicate 2 |
| --- | --- | --- | --- |
| Task7 | 1 | 54840 | 49267 |
| CG15221 | 1 | 3.65e5 | 3.51e5 |
| CG5225 | 1 | 79510 | 78610 |
| CG14780 | 1 | 42030 | 52010 |
| Pms2 | 1 | 60263 | 46070 |
| mthl12 | 1 | 1.85e5 | 1.39e5 |
| kst | 1 | 35913 | 35567 |
| Rad51D | 1 | 56593 | 74163 |
| CG31086 + CG31323 | 1 | 58320 | 58560 |
| CG5909 | 1 | 68670 | 41460 |
| CG5866 | 1 | 95050 | 61210 |
| fd3F (retired record) + Crg-1 | 1 | 2.66e5 | 2.44e5 |
| GM130 | 1 | 70723 | 68830 |
| beg | 1 | 24197 | 23157 |
| Brf | 1 | 2.67e5 | 3.08e5 |
| Brf | 2 | 71920 | 92430 |
| Brf | 3 | 71540 | 68560 |
| CG10175 | 1 | 2.34e5 | 1.95e5 |
| CG10175 | 2 | 62620 | 64930 |
| CG2121 | 1 | 76463 | 61770 |
| CG2121 | 2 | 49637 | 78447 |
| Rh3 | 1 | 46230 | 51160 |
| omd | 1 | 34213 | 31170 |
| CG31233 | 1 | 70910 | 54130 |
| Spindly | 1 | 34607 | 39673 |
| yrt | 1 | 46897 | 25030 |
| par-1 | 1 | 81603 | 39330 |
| par-1 | 2 | 67720 | 77640 |
| Atg12 | 1 | 69097 | 72387 |
| CG12824 | 1 | 50433 | 1.01e5 |
| CG14777 | 1 | 57960 | 68050 |
| CG5068 | 1 | 37273 | 38030 |
| Ip6k | 1 | 56087 | 82097 |
| E(spl)m6-BFM | 1 | 64110 | 57230 |
| CG8401 | 1 | 53537 | 79030 |
| fln | 1 | 28853 | 26150 |
| CG14937 | 1 | 37490 | 51073 |
| Gr47a | 1 | 47363 | 75653 |
| bap | 1 | 1.81e5 | 2.00e5 |
| CG14857 | 1 | 75500 | 72530 |
| pch2 | 1 | 65290 | 54080 |
| Prm | 1 | 1.73e5 | 1.75e5 |
| Prm | 2 | 1.79e5 | 1.61e5 |
| Prm | 3 | 33003 | 39907 |
| Shal | 1 | 72053 | 61057 |
| Shal | 2 | 69747 | 72140 |
| Gr93c | 1 | 59970 | 68660 |
| CG11381 | 1 | 29690 | 21550 |
| CG16711 | 1 | 86517 | 64740 |
| ODA-Dnal1 | 1 | 65197 | 86297 |
| ubl | 1 | 38053 | 89500 |
| RpS29 + snoRNA:Psi18S-1275 | 1 | 43717 | 35713 |
| CG33120 | 1 | 99407 | 93007 |
| rk | 1 | 78670 | 74820 |
| CG3902 | 1 | 1.04e5 | 72870 |
| 7B2 | 1 | 58227 | 62920 |
| CG5078 | 1 | 71277 | 71393 |
